From publication PMC5122387 (2016)

Chains of the proteins cited; added tags and fusions are not shown. Lines headed by an entry give the natural chain unless they say otherwise; changes in a name come on top.
UniProt P15941: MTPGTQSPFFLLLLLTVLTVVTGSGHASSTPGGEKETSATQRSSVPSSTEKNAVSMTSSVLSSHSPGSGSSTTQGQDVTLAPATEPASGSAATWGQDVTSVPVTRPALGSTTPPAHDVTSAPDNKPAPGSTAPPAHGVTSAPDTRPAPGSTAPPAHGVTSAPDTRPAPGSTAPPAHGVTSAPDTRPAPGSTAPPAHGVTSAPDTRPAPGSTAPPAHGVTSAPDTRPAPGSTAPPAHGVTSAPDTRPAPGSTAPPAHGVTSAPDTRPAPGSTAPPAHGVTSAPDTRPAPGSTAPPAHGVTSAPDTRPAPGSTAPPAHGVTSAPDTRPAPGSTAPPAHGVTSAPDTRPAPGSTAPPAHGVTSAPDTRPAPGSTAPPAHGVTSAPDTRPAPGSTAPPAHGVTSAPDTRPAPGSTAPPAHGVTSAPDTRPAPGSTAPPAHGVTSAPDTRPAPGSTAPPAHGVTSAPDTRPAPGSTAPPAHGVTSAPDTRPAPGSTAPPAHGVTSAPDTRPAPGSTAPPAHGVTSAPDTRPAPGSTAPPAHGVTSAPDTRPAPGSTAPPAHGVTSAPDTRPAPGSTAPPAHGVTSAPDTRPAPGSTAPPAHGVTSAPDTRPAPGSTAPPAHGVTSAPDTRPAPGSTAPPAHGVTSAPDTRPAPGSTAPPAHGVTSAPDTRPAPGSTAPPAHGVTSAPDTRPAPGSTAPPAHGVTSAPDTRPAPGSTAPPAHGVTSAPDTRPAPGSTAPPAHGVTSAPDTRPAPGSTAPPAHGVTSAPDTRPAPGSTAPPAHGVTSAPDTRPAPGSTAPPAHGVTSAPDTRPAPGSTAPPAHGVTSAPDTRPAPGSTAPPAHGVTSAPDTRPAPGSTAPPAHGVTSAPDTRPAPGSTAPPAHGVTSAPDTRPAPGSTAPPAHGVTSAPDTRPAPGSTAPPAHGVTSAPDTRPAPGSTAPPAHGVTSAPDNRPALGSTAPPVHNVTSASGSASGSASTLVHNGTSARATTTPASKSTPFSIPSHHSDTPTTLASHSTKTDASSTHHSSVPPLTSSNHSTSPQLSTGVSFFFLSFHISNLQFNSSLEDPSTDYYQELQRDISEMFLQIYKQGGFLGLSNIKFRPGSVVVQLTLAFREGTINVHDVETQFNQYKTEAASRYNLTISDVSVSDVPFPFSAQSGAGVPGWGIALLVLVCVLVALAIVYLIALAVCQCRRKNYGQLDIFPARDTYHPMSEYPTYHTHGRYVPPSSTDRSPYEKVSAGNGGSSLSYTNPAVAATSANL

Target: Mucin 1 (MUC1), on MUC1-positive cells (UniProt P15941)
Assay: flow cytometry
Conditions: 300 nM DNA, 30 min, Flow cytometry on intact cells in 200 ul PBS, 300 nM FAM-labelled DNA, two washes in Hanks buffer, temperature and pH not given, protein on the cell surface

“TTCCCTTCCTTCTCTCTTCCTCTCTCGCAGTTGATCCTTTGGATACCCTG / AGGAAGAGAGAAGGAAGGGAATTTTTACATTCCTAAGTCTGAAACATTACAGCTTGCTACACGAGAAGAGCCGCCATAGTA / TATCACCAGGCAGTTGACAGTGTAGCAAGCTGTAATAGATGCGAGGGTCCAATAC / TCAACTGCCTGGTGATAAAACGACACTACGTGGGAATCTACTATGGCGGCTCTTC / TTCAGACTTAGGAATGTGCTTCCCACGTAGTGTCGTTTGTATTGGACCCTCGCAT [Apt-Td (aptamer-DNA tetrahedron)]”: binds (preferential binding to MUC1-positive MCF-7 cells, folded or branched DNA).
“TTCCCTTCCTTCTCTCTTCCTCTCTCGCAGTTGATCCTTTGGATACCCTG [Apt-tail]”: binds (MUC1-positive cells (MCF-7, A549, HT-29), strong versus MUC1-negative cells, label: 5'-FAM, single-stranded DNA).

For at least one entry, the source does not settle the construct or the ends of the probe. At least one result comes from cells or an extract, where the contact may be indirect.
